From PMC3955662 come the findings set out here.

By UniProt entry, the sequences of proteins in these tests, tags left out.
UniProt P31749: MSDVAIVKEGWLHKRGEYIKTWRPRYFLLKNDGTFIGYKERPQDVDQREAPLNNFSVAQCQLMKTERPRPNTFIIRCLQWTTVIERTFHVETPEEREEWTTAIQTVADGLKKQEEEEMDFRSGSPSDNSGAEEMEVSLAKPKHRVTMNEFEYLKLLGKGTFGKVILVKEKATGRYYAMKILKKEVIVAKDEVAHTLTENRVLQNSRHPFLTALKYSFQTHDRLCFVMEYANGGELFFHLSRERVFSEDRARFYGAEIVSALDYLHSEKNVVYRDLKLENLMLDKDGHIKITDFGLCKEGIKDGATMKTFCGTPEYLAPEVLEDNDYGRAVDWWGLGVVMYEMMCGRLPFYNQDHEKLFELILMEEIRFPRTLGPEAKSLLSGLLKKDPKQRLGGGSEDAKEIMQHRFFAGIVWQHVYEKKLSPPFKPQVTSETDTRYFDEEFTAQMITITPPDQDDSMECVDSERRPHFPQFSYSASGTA

Results are given in words; binding and its absence hold for the method and conditions named. In cells and extracts the contact can be indirect. Some binding calls cover weakened binding; strength is not graded here.

Sequences and labels used below:
T1: NADPH oxidase isoform 4 (Nox4) (human (endogenous in THP1)) (UniProt Q9NPH5)
T1 sequence: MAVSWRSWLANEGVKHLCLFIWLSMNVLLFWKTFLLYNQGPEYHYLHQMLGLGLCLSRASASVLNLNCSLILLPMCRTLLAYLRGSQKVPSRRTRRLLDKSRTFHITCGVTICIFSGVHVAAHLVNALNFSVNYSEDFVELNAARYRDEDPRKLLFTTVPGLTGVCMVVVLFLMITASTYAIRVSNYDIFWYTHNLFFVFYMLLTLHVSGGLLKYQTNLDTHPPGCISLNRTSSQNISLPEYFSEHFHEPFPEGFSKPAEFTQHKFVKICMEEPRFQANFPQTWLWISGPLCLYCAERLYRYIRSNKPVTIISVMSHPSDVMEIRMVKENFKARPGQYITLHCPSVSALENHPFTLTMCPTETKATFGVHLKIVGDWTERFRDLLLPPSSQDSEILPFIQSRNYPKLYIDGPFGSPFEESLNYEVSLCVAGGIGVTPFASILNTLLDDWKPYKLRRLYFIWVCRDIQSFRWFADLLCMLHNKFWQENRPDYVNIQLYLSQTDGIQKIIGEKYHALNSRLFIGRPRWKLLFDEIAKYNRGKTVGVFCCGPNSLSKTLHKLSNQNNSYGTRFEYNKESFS

B1: p22phox (protein, UniProt P13498 1-195)
chain: MGQIEWAMWANEQALASGLILITGGIVATAGRFTQWYFGAYSIVAGVFVCLLEYPRGKRKKGSTMERWGQKYMTAVVKLFGPFTRNYYVRAVLHLLLSVPAGFLLATILGTACLAIASGIYLLAAVRGEQWTPIEPKPRERPQIGGTIKQPPSNPPPRPPAEARKKPSEEEAAVAAGGPPGGPQVNPIPVTDEVV
B2: Matrin3 (protein, UniProt P43243 1-847)
chain: MSKSFQQSSLSRDSQGHGRDLSAAGIGLLAAATQSLSMPASLGRMNQGTARLASLMNLGMSSSLNQQGAHSALSSASTSSHNLQSIFNIGSRGPLPLSSQHRGDADQASNILASFGLSARDLDELSRYPEDKITPENLPQILLQLKRRRTEEGPTLSYGRDGRSATREPPYRVPRDDWEEKRHFRRDSFDDRGPSLNPVLDYDHGSRSQESGYYDRMDYEDDRLRDGERCRDDSFFGETSHNYHKFDSEYERMGRGPGPLQERSLFEKKRGAPPSSNIEDFHGLLPKGYPHLCSICDLPVHSNKEWSQHINGASHSRRCQLLLEIYPEWNPDNDTGHTMGDPFMLQQSTNPAPGILGPPPPSFHLGGPAVGPRGNLGAGNGNLQGPRHMQKGRVETSRVVHIMDFQRGKNLRYQLLQLVEPFGVISNHLILNKINEAFIEMATTEDAQAAVDYYTTTPALVFGKPVRVHLSQKYKRIKKPEGKPDQKFDQKQELGRVIHLSNLPHSGYSDSAVLKLAEPYGKIKNYILMRMKSQAFIEMETREDAMAMVDHCLKKALWFQGRCVKVDLSEKYKKLVLRIPNRGIDLLKKDKSRKRSYSPDGKESPSDKKSKTDGSQKTESSTEGKEQEEKSGEDGEKDTKDDQTEQEPNMLLESEDELLVDEEEAAALLESGSSVGDETDLANLGDVASDGKKEPSDKAVKKDGSASAAAKKKLKKVDKIEELDQENEAALENGIKNEENTEPGAESSENADDPNKDTSENADGQSDENKDDYTIPDEYRIGPYQPNVPVGIDYVIPKTGFYCKLCSLFYTNEEVAKNTHCSSLPHYQKLKKFLNKLAEERRQKKET
B3: sc-35 (protein, UniProt Q01130 1-221)
chain: MSYGRPPPDVEGMTSLKVDNLTYRTSPDTLRRVFEKYGRVGDVYIPRDRYTKESRGFAFVRFHDKRDAEDAMDAMDGAVLDGRELRVQMARYGRPPDSHHSRRGPPPRRYGGGGYGRRSRSPRRRRRSRSRSRSRSRSRSRSRYSRSKSRSRTRSRSRSTSKSRSARRSKSKSSSVSRSRSRSRSRSRSRSPPPVSKRESKSRSRSKSPPKSPEEEGAVSS

This experiment deals with T1, NADPH oxidase isoform 4 (Nox4) (human (endogenous in THP1)). As to the kind of experiment: co-IP; precleared nuclear lysates of THP1 (AT lysis buffer, 1% Nonidet P-40, 150 mM NaCl) incubated 4 hours with 3 ug anti-Nox4, protein A/G agarose at 4°C, Western blot of the precipitate; preclearing fraction as control. A general note: Immunoblotting shows a protein as a band on a membrane.
As to “Akt1 (from UniProt P31749 1-480) (enzyme)”, the binding entry is given as “binds”.
Turning to B1, the binding entry is on record as “binds”.
The same measure for B2: “binds”; for B3: “binds”.
